# Laboratory results from the supplement of paper PMC8728848.
# The other results are listed elsewhere or left out.
# B1: his-Lectin-24A (Drosophila melanogaster) (protein)
# chain: MFRLSVLVLNLLLVSHEFSAGTAKIEIQPLPALCNGYCFPTLKPVMEYVAIHQDKWNTCTEILANEARKDQIQLNIQLDALKADVSNIKASQLSKDEKLDRMEREQFAMHESLETINRYLTVKLDRTKLQLEAIKNTMDYMKAQMDGYFSAINGVQCLQPGFEKIGDRYFYIEEDVELNWLDAQAKCRRMGGHLASIKTKQEFDAIVEKLDDSKSYFLGVNENTKTGDFVSAASGKSCLYHEWGPGEPHHNNDQERCVSILRKLMHVGNCTYEKRFICQYGI
# Tests used:
# Experiment in all cases: glycan array binding signal (z-score within array); higher = stronger binding
# Settings in all cases: glycan notation: IUPAC condensed, linker removed
# [1] = target: Gal(b1-4)GlcNAc(b1-2)Man(a1-3)[Gal(b1-4)GlcNAc(b1-2)Man(a1-6)]Man(b1-4)GlcNAc(b1-4)[Fuc(a1-6)]GlcNAc
# Outline: (§1)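 Arrays were curated from the Consortium for Functional Glycomics database, 3228 in total, and kept only where the protein sequence was available. Binding is expressed as a within-array Z-score. This score was averaged across arrays of the same protein sequence at different concentrations or buffers and across linkers, and negative values can be read as non-binding.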
# [2] = target: Gal(b1-4)GlcNAc(b1-2)Man(a1-3)[Gal(b1-4)GlcNAc(b1-2)Man(a1-6)][Gal(b1-4)GlcNAc(b1-4)]Man(b1-4)GlcNAc(b1-4)[Fuc(a1-6)]GlcNAc
# Outline: as §1
# [3] = target: Gal(b1-4)GlcNAc(b1-2)Man(a1-3)[Gal(b1-4)GlcNAc(b1-2)Man(a1-6)][GlcNAc(b1-4)]Man(b1-4)GlcNAc(b1-4)[Fuc(a1-6)]GlcNAc
# Outline: as §1
# [4] = target: Gal(b1-4)GlcNAc(b1-2)Man(a1-3)[GlcNAc(b1-2)Man(a1-6)]Man(b1-4)GlcNAc(b1-4)GlcNAc
# Outline: as §1
# [5] = target: Gal(b1-4)GlcNAc(b1-2)Man(a1-3)[GlcNAc(b1-4)][Gal(b1-4)GlcNAc(b1-2)Man(a1-6)]Man(b1-4)GlcNAc(b1-4)GlcNAc
# Outline: as §1
# [6] = target: Gal(b1-4)GlcNAc(b1-2)Man(a1-3)[Man(a1-6)]Man(b1-4)GlcNAc(b1-4)GlcNAc
# Outline: as §1
# [7] = target: Gal(b1-4)GlcNAc(b1-2)Man(a1-6)Man(b1-4)GlcNAc(b1-4)GlcNAc
# Outline: as §1
# [8] = target: Gal(b1-4)GlcNAc(b1-2)Man(a1-6)[GlcNAc(b1-2)Man(a1-3)]Man(b1-4)GlcNAc(b1-4)GlcNAc
# Outline: as §1
# [9] = target: Gal(b1-4)GlcNAc(b1-2)Man(a1-6)[Man(a1-3)]Man(b1-4)GlcNAc(b1-4)GlcNAc
# Outline: as §1
# [10] = target: Gal(b1-4)GlcNAc(b1-2)[Gal(b1-4)GlcNAc(b1-4)]Man(a1-3)[Gal(b1-4)GlcNAc(b1-2)Man(a1-6)]Man(b1-4)GlcNAc(b1-4)GlcNAc
# Outline: as §1
# [11] = target: Gal(b1-4)GlcNAc(b1-2)[Gal(b1-4)GlcNAc(b1-4)]Man(a1-3)[Gal(b1-4)GlcNAc(b1-2)[Gal(b1-4)GlcNAc(b1-6)]Man(a1-6)]Man(b1-4)GlcNAc(b1-4)GlcNAc
# Outline: as §1
# [12] = target: Gal(b1-4)GlcNAc(b1-2)[Gal(b1-4)GlcNAc(b1-4)]Man(a1-3)[GlcNAc(b1-4)][Gal(b1-4)GlcNAc(b1-2)Man(a1-6)]Man(b1-4)GlcNAc(b1-4)GlcNAc
# Outline: as §1
# [13] = target: Gal(b1-4)GlcNAc(b1-2)[Gal(b1-4)GlcNAc(b1-4)]Man(a1-3)[GlcNAc(b1-4)][Gal(b1-4)GlcNAc(b1-2)[Gal(b1-4)GlcNAc(b1-6)]Man(a1-6)]Man(b1-4)GlcNAc(b1-4)GlcNAc
# Outline: as §1
# [14] = target: Gal(b1-4)GlcNAc(b1-2)[Gal(b1-4)GlcNAc(b1-6)]Man(a1-6)[Gal(b1-4)GlcNAc(b1-2)Man(a1-3)]Man(b1-4)GlcNAc(b1-4)GlcNAc
# Outline: as §1
# [15] = target: Gal(b1-4)GlcNAc(b1-2)[Gal(b1-4)GlcNAc(b1-6)]Man(a1-6)[Gal(b1-4)GlcNAc(b1-2)Man(a1-3)]Man(b1-4)GlcNAc(b1-4)[Fuc(a1-6)]GlcNAc
# Outline: as §1
# [16] = target: Gal(b1-4)GlcNAc(b1-2)[Gal(b1-4)GlcNAc(b1-6)]Man(a1-6)[GlcNAc(b1-4)][Gal(b1-4)GlcNAc(b1-2)Man(a1-3)]Man(b1-4)GlcNAc(b1-4)GlcNAc
# Outline: as §1
# [17] = target: Gal(b1-4)GlcNAc(b1-2)[Gal(b1-4)GlcNAc(b1-6)]Man(a1-6)[GlcNAc(b1-4)][Gal(b1-4)GlcNAc(b1-2)[Gal(b1-4)GlcNAc(b1-4)]Man(a1-3)]Man(b1-4)GlcNAc(b1-4)[Fuc(a1-6)]GlcNAc
# Outline: as §1
# [18] = target: Gal(b1-4)GlcNAc(b1-3)Gal(b1-3)GalNAc
# Outline: as §1
# [19] = target: Gal(b1-4)GlcNAc(b1-3)Gal(b1-3)GlcNAc
# Outline: as §1
binder,measurement,setting,value
B1,glycan array binding signal (z-score),[1],-0.044
same,glycan array binding signal (z-score),[2],-1.92
same,glycan array binding signal (z-score),[3],-0.842
same,glycan array binding signal (z-score),[4],-0.152
same,glycan array binding signal (z-score),[5],-1.51
same,glycan array binding signal (z-score),[6],0.001
same,glycan array binding signal (z-score),[7],0.504
same,glycan array binding signal (z-score),[8],-0.222
same,glycan array binding signal (z-score),[9],2.68
same,glycan array binding signal (z-score),[10],-0.462
same,glycan array binding signal (z-score),[11],-0.379
same,glycan array binding signal (z-score),[12],-1.25
same,glycan array binding signal (z-score),[13],-1.76
same,glycan array binding signal (z-score),[14],-0.553
same,glycan array binding signal (z-score),[15],0.471
same,glycan array binding signal (z-score),[16],0.134
same,glycan array binding signal (z-score),[17],-0.015
same,glycan array binding signal (z-score),[18],-0.9
same,glycan array binding signal (z-score),[19],0.165

# Laid out differently: results already given.
binder	measurement	setting	value
B1	glycan array binding signal (z-score)	[18]	-0.9
same	glycan array binding signal (z-score)	[19]	0.165
